PubChem BioAssay AID493014 (National Center for Advancing Translational Sciences (NCATS), 2011)
The whole screen tested about 340,000 compounds, of which about 170 (0.05%) were called active. Inconclusive means that the source gave no clear call. Such entries were picked first, then a sample of the others. Calls follow the shape of the dose curve; as a rule, active = well fitted inhibition curve with a large enough effect in the signal ratio, with a control signal flat (not every such curve was filed as active); inconclusive = small, poorly fitted or top-dose-only effect, or effect the other way, or a change in a side signal; inactive = flat fitted curve, though single readings scatter; the % refers to the signal ratio. Potencies beside an inconclusive call are fits to weak or partial responses and may not hold up. Peptide text beside a SMILES is read from it. * marks the point of attachment. Cbz = O=C(OCc1ccccc1)*
Potency is read from the fitted curve at half-maximal effect.

Assay: qHTS Assay to Find Inhibitors of Chronic Active B-Cell Receptor Signaling;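 as to activity change, negative = inhibition: plate controls were basal doxycycline-induced cells for no effect and cells given 10 µM MG132 for full effect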
Details: ABC-DLBCL IkBa-CBG/CBR reporter, luminescence ratio (green luciferase fused to IkBa over red control in TMD8 lymphoma cells), 4 h; activity change, negative = inhibition: at 46.1 µM (top of the series)
In short: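 TMD8 ABC-DLBCL cells carrying doxycycline-inducible green luciferase fused to IkappaBalpha plus unfused red luciferase were exposed to compounds (up to 46 uM) for 4 hrs at 37C. Activity came from the overlap-corrected green/red luminescence ratio.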
With `Cn1c(-c2ccc3c(c2)OCO3)cnc1NCc1cccc(O)c1` the Potency was inconclusive: 35.5 µM [falling, single point].
For `O=C(COC(=O)/C=C/c1ccc(OC(F)F)cc1)NCc1cccs1`, the activity change, negative = inhibition was inconclusive: 2.45%.
For `Cc1c(O)ccc(NC(=O)/C=C/c2ccccc2)c1C`, the activity change, negative = inhibition was inconclusive: -16.7%.
For `CC(NC(=O)COC(=O)c1cccc(S(=O)(=O)N2CCCC2)c1)c1ccccc1` (stereo not given), the activity change, negative = inhibition was inconclusive: 2.49%.
With `S=C(NCc1ccco1)N1CCN(Cc2ccco2)CC1` the “activity change, negative = inhibition” value was inactive: -13.2%.
For `Cc1ccc(OCC(O)CNC(C)c2ccccc2)cc1C` (stereo not given), the “activity change, negative = inhibition” value was inactive: -9.59%.
With `CCOc1ccccc1N1CC(C(=O)Nc2ccc3c(c2)OCCO3)CC1=O` (stereo not given) the Potency was inconclusive: 25.1 µM [falling, single point].
In the case of `CC(=O)c1ccc(CCCCCCCCCC(=O)O)s1`, the activity change, negative = inhibition is reported as inconclusive: 0.187%.
With `CNc1oc(-c2ccccc2Cl)nc1P(=O)(c1ccccc1)c1ccccc1` the “activity change, negative = inhibition” value was inactive: -1.81%.
For `CC(NC(=O)CNC(=O)C(Cc1ccccc1)NC(=O)OCc1ccccc1)C(N)=O` (stereo not drawn) (Cbz-Phe-Gly-Ala-NH2; configuration not given here), the activity change, negative = inhibition was inconclusive: 6.07%.
For `CN(C)c1ccc(NC(=O)CSc2nc(N)c(C(=O)Nc3ccc(N(C)C)cc3)s2)cc1`, the Potency was inconclusive: 11.2 µM [falling, partial curve].
With `Cc1ccccc1C(=O)N1N=C(c2cccc(NS(C)(=O)=O)c2)CC1c1cccs1` (stereo not given) the “activity change, negative = inhibition” value was inactive: -15.1%.
In the case of `CCc1nc(-c2cc3ccc(C)cc3[nH]c2=O)no1`, the activity change, negative = inhibition is reported as inconclusive: 12.2%.
With `COc1ccccc1CNC(=O)CCCc1cn(C)c2ccccc12` the activity change, negative = inhibition was inconclusive: -18.4%.
In the case of `O=c1c2ccccc2nc2sc(Nc3ccc(F)cc3)nn12`, the Potency is reported as inconclusive: 0.164 µM [rising, full curve, poor fit].
With `Cc1ccc(S(=O)(=O)c2nnn3c2nc(Nc2cccc(C)c2)c2ccccc23)cc1` the activity change, negative = inhibition was inconclusive: -5.87%.
In the case of `CN(C)C(CNC(=O)CNC(=O)c1ccc2ccccc2c1)c1ccccc1` (stereo not given), the “activity change, negative = inhibition” value is reported as inactive: 2.68%.
With `Cc1cc(Cl)ccc1NC(=O)c1cc(S(=O)(=O)N2CCOCC2)cn1C` the activity change, negative = inhibition was inconclusive: -4.63%.
In the case of `O=C(CSc1n[nH]c(-c2cccs2)n1)N1CCN(S(=O)(=O)c2ccccc2)CC1`, the activity change, negative = inhibition is reported as inconclusive: 8.04%.
With `CC(C)(C)C(=O)/C(=C\c1ccc([N+](=O)[O-])cc1)n1cncn1` the Potency was inconclusive: 29.1 µM [rising, single point].
For `COc1ccc(C)cc1NC(=O)C(OC(=O)CNC(=O)c1ccc(Br)cc1)c1ccccc1` (stereo not given), the activity change, negative = inhibition was inconclusive: 1.33%.
For `COc1cccc(N2CCN(C(=O)c3cc4ccc(OC)cc4[nH]3)CC2)c1`, the activity change, negative = inhibition was inconclusive: -16.3%.
In the case of `CC1=NN(/C(=N\c2nnc(C)s2)Nc2ccc(C(C)(C)C)cc2)[C@H](c2ccc(C)cc2)S1`, the activity change, negative = inhibition is reported as inconclusive: 25.3%.
For `COc1ccc(CN2CCN(Cc3cc(=O)oc4cc(C)ccc34)CC2)c(OC)c1OC`, the activity change, negative = inhibition was inconclusive: -12.4%.
For `O=C(COc1ccccc1Cl)Nc1ccc2[nH]c(=O)[nH]c2c1`, the “activity change, negative = inhibition” value was inactive: 5.99%.
In the case of `CN(C)c1ccc(C(CNS(=O)(=O)c2ccc(F)cc2)c2c[nH]c3ccccc23)cc1` (stereo not given), the activity change, negative = inhibition is reported as inconclusive: -3.02%.
For `CC(=O)NC(=S)Nc1cccc2ccc(C)nc12`, the Potency was inconclusive: 10 µM [falling, partial curve].
With `CN1C(=O)/C(=C/c2cn(CC(=O)N3CCCCC3)c3ccccc23)c2ccccc21` the Potency was inconclusive: 5.8 µM [falling, partial curve].
In the case of `O=C(O)c1ccc(N/N=C/c2cc(Br)cs2)cc1`, the activity change, negative = inhibition is reported as inconclusive: 131%.
For `C[C@H](CO)N1C[C@H](C)[C@@H](CN(C)C(=O)Nc2ccc3c(c2)OCO3)Oc2ccc(NC(=O)Nc3ccc4c(c3)OCO4)cc2C1=O`, the “activity change, negative = inhibition” value was inactive: 2.6%.
With `Cc1ccc(-n2nc3c(=O)n(C(C)C(=O)NCCC4=CCCCC4)nc(C)c3c2C)cc1` (stereo not given) the “activity change, negative = inhibition” value was inactive: 9.21%.
With `Cc1ccc([N+](=O)[O-])c(-c2n[nH]c(=S)n2-c2cccc(Cl)c2)c1` the activity change, negative = inhibition was inconclusive: 20.1%.
For `O=C(N/N=C/C(Br)=C/c1ccccc1)c1ccccc1F`, the Potency was inconclusive: 35.5 µM [rising, single point].
In the case of `O=C(N/N=C/c1ccccc1)c1ccc2c(c1)OCO2`, the Potency is reported as inconclusive: 20 µM [falling, partial curve].
In the case of `COC(=O)c1nn(Cc2ccccc2)c(=O)c2ccccc12`, the activity change, negative = inhibition is reported as inconclusive: -7.21%.
With `Clc1cccc(-c2ccc(/C=N/n3cnnc3)o2)c1Cl` the “activity change, negative = inhibition” value was inactive: 0.159%.
In the case of `NNc1ccc(Cl)nn1`, the Potency is reported as inconclusive: 35.5 µM [falling, single point].
With `CN1c2ccc([N+](=O)[O-])cc2N(C)C1(C)c1ccccc1` (stereo not given) the activity change, negative = inhibition was inconclusive: 5.45%.
In the case of `C/C(CC(=O)Nc1ccc(Cl)cc1Cl)=N\NC(=O)c1cnccn1`, the Potency is reported as inconclusive: 20 µM [falling, partial curve].
With `C[C@H](NC(=O)C1CCN(C(=O)[C@H](Cc2ccccc2)NC(=O)OC(C)(C)C)CC1)C(=O)O` the “activity change, negative = inhibition” value was inactive: 0.643%.
